From paper PMC11186203

Biological target: His-AR-NTD (human)
Assay: co-IP; HEK293T cells transfected with His-AR (full length), His-AR-NTD, His-AR-DBD, His-AR-LBD or empty vector, lysed and precipitated by the His-tag or with anti-RACGAP1 antibody, then blotted (the legend calls it a pull-down)

binding: binds
B1: RACGAP1 in HEK293T cell lysate (protein, UniProt Q9H0H5 1-632)
chain: MDTMMLNVRNLFEQLVRRVEILSEGNEVQFIQLAKDFEDFRKKWQRTDHELGKYKDLLMKAETERSALDVKLKHARNQVDVEIKRRQRAEADCEKLERQIQLIREMLMCDTSGSIQLSEEQKSALAFLNRGQPSSSNAGNKRLSTIDESGSILSDISFDKTDESLDWDSSLVKTFKLKKREKRRSTSRQFVDGPPGPVKKTRSIGSAVDQGNESIVAKTTVTVPNDGGPIEAVSTIETVPYWTRSRRKTGTLQPWNSDSTLNSRQLEPRTETDSVGTPQSNGGMRLHDFVSKTVIKPESCVPCGKRIKFGKLSLKCRDCRVVSHPECRDRCPLPCIPTLIGTPVKIGEGMLADFVSQTSPMIPSIVVHCVNEIEQRGLTETGLYRISGCDRTVKELKEKFLRVKTVPLLSKVDDIHAICSLLKDFLRNLKEPLLTFRLNRAFMEAAEITDEDNSIAAMYQAVGELPQANRDTLAFLMIHLQRVAQSPHTKMDVANLAKVFGPTIVAHAVPNPDPVTMLQDIKRQPKVVERLLSLPLEYWSQFMMVEQENIDPLHVIENSNAFSTPQTPDIKVSLLGPVTTPEHQLLKTPSSSSLSQRVRSTLTKNTPRFGSKSKSATNLGRQGNFFASPMLK

These are yes or no findings as the source states them, for the method shown. In cells and extracts the contact can be indirect. A result given as binding can be weak or reduced; the word gives no strength.
